Laboratory results taken from PMC10348673.
Results are given in words; binding and its absence hold for the method and conditions named. In cells and extracts the contact can be indirect. Some results given as binding are weak or reduced against the parent protein; the word gives no strength. For some assays here: Where a sequence is shown, tags or fusion partners need not be part of it.

Chains of the proteins cited; added tags and fusions are not shown. Lines headed by an entry give the natural chain unless they say otherwise; changes in a name come on top.
UniProt Q92963: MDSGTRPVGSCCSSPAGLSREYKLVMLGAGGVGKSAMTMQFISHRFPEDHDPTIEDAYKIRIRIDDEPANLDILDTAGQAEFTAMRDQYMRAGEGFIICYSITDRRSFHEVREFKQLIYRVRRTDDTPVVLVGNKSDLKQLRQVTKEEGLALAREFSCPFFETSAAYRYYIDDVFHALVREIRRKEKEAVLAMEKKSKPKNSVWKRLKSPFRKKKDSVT
UniProt P15056: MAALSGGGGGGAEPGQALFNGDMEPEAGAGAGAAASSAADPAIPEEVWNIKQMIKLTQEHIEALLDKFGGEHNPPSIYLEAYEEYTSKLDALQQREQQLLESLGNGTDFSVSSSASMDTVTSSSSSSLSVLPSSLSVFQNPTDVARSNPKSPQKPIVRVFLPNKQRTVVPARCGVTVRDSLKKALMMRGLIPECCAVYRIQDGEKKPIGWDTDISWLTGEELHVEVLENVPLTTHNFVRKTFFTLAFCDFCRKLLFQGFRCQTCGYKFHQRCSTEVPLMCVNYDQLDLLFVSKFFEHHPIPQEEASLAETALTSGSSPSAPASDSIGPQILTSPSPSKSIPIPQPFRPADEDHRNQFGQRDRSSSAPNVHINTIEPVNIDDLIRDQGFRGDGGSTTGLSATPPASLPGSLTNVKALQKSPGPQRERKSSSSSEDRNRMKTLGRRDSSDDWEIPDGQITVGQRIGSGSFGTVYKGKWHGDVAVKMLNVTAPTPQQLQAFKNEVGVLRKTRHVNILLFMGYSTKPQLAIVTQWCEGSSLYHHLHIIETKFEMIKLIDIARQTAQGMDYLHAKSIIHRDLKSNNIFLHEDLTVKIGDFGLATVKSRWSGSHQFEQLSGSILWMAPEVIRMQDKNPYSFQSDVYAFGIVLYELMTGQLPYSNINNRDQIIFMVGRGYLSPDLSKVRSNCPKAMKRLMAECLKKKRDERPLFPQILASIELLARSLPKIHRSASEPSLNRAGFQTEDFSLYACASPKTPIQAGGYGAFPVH

Assays:
[1] = target: RIT1 wild type (expressed in HEK293T) (UniProt Q92963); test: pull-down; GST pull-down from lysates of HEK293T cells co-expressing the constructs; Glutathione Sepharose 4B, 4 hours at 4°C; 50 mM tris-HCl pH 7.5, 150 mM NaCl, 1% IGEPAL CA-630, 10% glycerol
ARAF-nanoLuc = target: T1, ARAF-nanoLuc (UniProt P10398); test: FRET or BRET; nanoBRET in intact HEK293T cells; mVenus-RIT1 acceptor titrated (0 to 1000 ng DNA), RAF-nanoLuc donor constant; BRET50 from non-linear fit
T1 sequence: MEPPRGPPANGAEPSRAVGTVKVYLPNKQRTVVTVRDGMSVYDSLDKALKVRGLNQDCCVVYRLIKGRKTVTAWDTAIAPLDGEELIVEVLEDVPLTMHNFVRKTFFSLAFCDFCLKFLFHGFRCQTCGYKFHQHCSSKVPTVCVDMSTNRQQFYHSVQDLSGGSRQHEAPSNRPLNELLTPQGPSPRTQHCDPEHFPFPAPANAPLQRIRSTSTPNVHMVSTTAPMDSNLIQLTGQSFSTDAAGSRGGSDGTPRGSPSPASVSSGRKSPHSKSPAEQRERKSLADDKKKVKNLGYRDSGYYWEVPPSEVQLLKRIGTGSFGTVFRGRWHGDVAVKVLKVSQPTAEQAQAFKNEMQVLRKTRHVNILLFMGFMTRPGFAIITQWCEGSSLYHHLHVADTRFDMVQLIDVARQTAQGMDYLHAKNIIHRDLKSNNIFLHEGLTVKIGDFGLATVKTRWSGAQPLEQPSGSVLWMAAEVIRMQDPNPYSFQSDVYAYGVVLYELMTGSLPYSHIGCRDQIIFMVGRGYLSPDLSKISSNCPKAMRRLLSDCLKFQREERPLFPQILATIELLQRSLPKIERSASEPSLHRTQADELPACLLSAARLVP

BRAF-nanoLuc = BRAF-nanoLuc (UniProt P15056); test: as above

Substance	binding [1]	binding (ARAF-nanoLuc)	binding (BRAF-nanoLuc)
BRAF (expressed in HEK293T) (from UniProt P15056 1-766)	binds weakly	–	–
mVenus-RIT1 (wild type) (from UniProt Q92963 1-219)	–	binds	binds
mVenus-RIT1 A57G (from UniProt Q92963 1-219)	–	binds	binds
